Data taken from the supplement of paper PMC12819154, “High-throughput peptide-centric local stability assay extends protein–ligand identification to membrane proteins, tissues and bacteria” (Nature Structural & Molecular Biology, 2025).
Some of the results follow. Most entries show no effect beyond the scatter of the controls.

Amino acid sequences for entries named in this document (tags omitted). A change or cut given only in a name is not applied to a line headed by its entry.
UniProt Q9D7S9: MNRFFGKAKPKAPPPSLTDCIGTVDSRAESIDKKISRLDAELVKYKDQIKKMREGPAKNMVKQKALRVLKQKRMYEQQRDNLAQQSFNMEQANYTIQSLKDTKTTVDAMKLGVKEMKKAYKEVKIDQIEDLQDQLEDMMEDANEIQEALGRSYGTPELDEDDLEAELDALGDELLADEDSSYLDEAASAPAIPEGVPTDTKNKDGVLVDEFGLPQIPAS
UniProt Q9D4F8, whole entry: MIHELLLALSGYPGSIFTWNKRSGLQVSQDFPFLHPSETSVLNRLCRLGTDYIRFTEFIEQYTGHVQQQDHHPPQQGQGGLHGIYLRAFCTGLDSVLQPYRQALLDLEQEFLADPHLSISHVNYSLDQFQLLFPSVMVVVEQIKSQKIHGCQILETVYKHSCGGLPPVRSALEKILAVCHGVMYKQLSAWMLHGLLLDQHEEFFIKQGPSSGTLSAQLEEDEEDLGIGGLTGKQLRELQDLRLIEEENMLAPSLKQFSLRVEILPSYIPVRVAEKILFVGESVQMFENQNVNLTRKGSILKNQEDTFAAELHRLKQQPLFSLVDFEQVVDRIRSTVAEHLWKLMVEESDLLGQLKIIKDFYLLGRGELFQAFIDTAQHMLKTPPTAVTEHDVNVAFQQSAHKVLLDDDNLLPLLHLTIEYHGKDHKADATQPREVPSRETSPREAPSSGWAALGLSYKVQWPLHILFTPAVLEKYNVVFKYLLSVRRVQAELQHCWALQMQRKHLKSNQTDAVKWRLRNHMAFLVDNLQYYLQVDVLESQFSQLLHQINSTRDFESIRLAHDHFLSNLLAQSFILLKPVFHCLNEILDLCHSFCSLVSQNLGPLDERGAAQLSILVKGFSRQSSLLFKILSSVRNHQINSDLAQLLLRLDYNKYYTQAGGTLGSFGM
UniProt Q9D708: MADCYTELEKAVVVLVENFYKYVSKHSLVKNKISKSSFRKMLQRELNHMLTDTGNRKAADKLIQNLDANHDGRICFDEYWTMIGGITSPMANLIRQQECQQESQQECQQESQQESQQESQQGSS
UniProt Q9D2Y4: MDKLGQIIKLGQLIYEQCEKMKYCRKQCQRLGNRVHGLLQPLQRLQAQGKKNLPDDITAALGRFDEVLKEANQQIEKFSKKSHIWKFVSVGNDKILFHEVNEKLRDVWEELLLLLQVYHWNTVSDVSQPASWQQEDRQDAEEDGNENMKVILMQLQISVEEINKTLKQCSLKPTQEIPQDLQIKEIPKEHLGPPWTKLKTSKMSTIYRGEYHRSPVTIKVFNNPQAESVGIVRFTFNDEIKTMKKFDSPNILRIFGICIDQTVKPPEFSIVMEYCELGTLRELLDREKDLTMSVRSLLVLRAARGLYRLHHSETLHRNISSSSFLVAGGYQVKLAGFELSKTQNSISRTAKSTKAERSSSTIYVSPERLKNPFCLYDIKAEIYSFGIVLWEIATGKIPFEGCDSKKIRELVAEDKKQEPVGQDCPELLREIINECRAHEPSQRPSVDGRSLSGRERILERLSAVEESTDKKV
UniProt Q9D9M5: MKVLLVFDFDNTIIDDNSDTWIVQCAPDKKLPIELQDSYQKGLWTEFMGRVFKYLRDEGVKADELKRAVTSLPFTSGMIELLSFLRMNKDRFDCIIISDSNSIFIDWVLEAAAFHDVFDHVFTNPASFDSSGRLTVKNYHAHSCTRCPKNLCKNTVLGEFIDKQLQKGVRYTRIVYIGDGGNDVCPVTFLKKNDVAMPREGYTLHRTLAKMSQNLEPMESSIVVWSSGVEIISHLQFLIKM
UniProt Q9D5V5: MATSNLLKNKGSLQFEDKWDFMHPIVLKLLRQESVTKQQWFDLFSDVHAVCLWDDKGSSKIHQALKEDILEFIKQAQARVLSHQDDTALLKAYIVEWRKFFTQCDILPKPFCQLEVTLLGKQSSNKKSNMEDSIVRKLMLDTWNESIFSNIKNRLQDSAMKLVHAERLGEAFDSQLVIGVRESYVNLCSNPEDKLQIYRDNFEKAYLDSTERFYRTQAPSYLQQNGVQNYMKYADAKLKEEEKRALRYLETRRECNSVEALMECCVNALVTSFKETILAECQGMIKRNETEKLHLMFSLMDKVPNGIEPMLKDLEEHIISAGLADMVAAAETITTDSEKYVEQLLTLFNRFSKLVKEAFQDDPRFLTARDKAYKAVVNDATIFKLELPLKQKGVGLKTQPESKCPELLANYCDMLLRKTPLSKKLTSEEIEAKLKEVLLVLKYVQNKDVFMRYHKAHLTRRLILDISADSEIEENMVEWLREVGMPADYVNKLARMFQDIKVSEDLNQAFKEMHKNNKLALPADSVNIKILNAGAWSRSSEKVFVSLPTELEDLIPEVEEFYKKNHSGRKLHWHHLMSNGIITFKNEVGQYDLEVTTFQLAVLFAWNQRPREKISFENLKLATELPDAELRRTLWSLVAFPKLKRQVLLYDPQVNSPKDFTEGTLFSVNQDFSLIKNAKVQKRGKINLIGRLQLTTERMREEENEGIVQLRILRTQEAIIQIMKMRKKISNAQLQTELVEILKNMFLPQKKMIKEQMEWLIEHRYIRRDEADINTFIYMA
UniProt Q9DA03: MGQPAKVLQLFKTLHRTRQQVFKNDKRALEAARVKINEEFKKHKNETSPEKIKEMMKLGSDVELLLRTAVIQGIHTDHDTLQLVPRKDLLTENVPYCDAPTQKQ
UniProt Q9D7N6: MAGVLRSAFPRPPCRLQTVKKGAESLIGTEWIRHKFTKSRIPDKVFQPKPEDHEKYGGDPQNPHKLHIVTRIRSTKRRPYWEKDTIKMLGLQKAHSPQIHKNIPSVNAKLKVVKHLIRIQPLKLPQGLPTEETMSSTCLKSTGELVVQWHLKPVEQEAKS
UniProt Q9D8N2, whole entry: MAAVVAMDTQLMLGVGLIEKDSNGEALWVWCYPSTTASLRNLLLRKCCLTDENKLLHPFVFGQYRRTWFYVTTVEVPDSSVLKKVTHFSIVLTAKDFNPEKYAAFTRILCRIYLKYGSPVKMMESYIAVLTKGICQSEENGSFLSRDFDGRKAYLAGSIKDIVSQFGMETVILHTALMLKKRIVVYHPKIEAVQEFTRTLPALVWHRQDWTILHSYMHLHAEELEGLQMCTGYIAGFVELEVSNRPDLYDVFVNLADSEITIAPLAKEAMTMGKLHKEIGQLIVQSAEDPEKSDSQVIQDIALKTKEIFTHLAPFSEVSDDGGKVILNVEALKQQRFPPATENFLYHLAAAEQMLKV
UniProt Q9D211: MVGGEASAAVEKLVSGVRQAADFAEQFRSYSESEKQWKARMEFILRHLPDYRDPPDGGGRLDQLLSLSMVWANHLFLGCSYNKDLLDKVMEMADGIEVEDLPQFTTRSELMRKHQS
UniProt Q9D7V2: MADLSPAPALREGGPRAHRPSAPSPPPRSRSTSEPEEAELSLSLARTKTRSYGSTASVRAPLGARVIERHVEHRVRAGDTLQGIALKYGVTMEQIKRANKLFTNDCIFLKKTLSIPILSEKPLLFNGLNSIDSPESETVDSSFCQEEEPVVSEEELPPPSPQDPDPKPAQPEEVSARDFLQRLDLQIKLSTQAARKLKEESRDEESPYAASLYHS
UniProt Q9D8Y0: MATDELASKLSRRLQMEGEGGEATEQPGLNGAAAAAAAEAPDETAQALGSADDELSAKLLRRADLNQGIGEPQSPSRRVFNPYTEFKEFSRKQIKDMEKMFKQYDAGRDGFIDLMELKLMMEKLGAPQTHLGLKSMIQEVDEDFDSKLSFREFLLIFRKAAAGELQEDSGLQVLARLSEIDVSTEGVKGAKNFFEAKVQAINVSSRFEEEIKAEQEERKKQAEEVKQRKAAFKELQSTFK
UniProt Q9D7V1: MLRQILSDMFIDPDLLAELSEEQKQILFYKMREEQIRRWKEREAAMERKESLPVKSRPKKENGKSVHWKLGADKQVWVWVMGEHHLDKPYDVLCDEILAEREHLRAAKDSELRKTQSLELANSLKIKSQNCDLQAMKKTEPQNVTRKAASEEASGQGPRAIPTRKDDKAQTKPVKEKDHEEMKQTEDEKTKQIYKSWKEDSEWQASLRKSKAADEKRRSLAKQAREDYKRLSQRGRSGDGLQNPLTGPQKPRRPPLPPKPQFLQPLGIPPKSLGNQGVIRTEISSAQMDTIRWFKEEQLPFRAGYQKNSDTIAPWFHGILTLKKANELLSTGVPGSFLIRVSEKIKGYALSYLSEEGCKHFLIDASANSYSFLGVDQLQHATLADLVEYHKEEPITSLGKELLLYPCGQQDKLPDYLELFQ
UniProt Q9D1K2, whole entry: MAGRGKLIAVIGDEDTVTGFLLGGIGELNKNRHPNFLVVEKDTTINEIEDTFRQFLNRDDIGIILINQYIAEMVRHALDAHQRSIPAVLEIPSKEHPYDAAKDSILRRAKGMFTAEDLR
UniProt Q9D7F7: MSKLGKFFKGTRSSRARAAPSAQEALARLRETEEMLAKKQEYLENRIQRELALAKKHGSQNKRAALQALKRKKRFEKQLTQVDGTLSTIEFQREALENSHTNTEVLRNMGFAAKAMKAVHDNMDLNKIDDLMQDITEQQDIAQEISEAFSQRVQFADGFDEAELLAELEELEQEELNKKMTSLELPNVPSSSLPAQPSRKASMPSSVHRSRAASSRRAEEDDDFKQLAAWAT
UniProt Q9D4H2: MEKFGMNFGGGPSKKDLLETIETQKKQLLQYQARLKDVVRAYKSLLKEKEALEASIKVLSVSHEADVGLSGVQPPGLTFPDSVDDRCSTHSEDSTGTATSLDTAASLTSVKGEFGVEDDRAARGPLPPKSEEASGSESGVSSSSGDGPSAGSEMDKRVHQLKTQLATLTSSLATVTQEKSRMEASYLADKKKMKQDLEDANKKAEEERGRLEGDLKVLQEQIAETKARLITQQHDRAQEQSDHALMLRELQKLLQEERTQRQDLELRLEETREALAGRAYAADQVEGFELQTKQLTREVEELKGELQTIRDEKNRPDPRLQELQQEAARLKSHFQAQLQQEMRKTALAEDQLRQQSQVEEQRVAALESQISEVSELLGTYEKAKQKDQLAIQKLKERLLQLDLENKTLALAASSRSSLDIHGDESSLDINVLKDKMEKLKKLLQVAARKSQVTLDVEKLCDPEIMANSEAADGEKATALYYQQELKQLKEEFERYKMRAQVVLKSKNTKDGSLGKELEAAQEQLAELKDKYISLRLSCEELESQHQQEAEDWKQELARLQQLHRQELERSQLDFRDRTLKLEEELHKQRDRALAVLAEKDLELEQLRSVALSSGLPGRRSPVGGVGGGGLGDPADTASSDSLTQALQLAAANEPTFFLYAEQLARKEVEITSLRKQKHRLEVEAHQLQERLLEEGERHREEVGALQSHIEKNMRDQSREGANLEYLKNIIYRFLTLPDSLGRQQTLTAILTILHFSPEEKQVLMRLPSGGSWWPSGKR
UniProt Q9D853: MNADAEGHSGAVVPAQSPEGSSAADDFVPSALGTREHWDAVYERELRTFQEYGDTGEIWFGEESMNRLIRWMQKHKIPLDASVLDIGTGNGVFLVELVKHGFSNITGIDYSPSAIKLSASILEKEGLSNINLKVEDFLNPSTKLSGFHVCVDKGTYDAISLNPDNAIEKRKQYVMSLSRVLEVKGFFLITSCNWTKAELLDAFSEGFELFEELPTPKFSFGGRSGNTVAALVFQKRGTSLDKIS
UniProt Q9D7M1, whole entry: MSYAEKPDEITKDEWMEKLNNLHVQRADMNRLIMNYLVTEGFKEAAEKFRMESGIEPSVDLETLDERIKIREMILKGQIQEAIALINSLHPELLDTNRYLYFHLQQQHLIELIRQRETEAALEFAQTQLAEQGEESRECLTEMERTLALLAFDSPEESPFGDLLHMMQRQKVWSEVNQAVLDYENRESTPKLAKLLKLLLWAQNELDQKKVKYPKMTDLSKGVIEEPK
UniProt Q9D8Z6: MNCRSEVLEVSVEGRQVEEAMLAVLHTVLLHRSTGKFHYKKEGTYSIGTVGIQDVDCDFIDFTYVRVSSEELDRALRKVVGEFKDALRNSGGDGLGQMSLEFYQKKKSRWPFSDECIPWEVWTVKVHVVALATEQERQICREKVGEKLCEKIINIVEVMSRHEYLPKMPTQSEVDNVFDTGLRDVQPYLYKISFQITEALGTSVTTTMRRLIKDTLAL
UniProt Q9D8S4: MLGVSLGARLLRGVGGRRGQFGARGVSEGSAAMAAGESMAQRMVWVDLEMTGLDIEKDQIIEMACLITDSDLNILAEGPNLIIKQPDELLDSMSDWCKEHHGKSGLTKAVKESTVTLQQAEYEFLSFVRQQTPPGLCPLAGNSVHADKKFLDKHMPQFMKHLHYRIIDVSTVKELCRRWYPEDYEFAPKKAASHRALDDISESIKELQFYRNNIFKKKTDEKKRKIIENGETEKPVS
UniProt Q9D8C4: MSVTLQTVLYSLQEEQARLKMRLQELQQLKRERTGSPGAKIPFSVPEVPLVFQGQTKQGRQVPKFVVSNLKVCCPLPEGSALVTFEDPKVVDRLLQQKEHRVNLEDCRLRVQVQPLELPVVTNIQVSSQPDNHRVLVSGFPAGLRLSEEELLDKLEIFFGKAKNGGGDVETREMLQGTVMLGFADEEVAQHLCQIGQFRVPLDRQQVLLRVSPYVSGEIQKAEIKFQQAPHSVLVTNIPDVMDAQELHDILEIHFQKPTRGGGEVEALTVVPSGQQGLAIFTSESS

Each target was assayed with CN[C@@H]1C[C@H]2O[C@@](C)([C@@H]1OC)n1c3ccccc3c3c4c(c5c6ccccc6n2c5c31)C(=O)NC4 [staurosporine] (assay: log2 fold change of tryptic peptide abundance, ligand vs vehicle (limited proteolysis) (log2 ratio); higher = more trypsin-susceptible (destabilized)). Conditions: ligand concentration: 20 uM; sample: mouse liver crude lysate; replicate design: treated separately.
With “UniProt Q9D7S9 (peptide sequence: YKDQIKK, peptide start residue: 45)” the log2 fold change was 0.11.
For “UniProt Q9D4F8 (peptide sequence: VEILPSYIPVR, peptide start residue: 261)”, the log2 fold change was -0.26.
“UniProt Q9D708 (peptide sequence: KAADKLIQNLDANHDGR, peptide start residue: 57)” showed a log2 fold change of 0.198.
For “UniProt Q9D1A2 (peptide sequence: FAELQSPNKFK, peptide start residue: 365)”, the log2 fold change was -0.251.
In the case of “UniProt Q9D2Y4 (peptide sequence: KFDSPNILR, peptide start residue: 245)”, the log2 fold change was 0.351.
Target “UniProt Q9D9M5 (peptide sequence: LPIELQDSYQK, peptide start residue: 31)” has a log2 fold change of 0.141.
Target “UniProt Q9D5V5 (peptide sequence: LATELPDAELRR, peptide start residue: 621)” has a log2 fold change of -0.638.
Target “UniProt Q9DA03 (peptide sequence: TAVIQGIHTDHDTLQLVPR, peptide start residue: 68)” has a log2 fold change of -0.372.
In the case of “UniProt Q9D7N6 (peptide sequence: VFQPKPEDHEK, peptide start residue: 45)”, the log2 fold change was 0.259.
“UniProt Q9D8N2 (peptide sequence: KVTHFSIVLTAK, peptide start residue: 84)” gave a log2 fold change of 0.409.
“UniProt Q9D211 (peptide sequence: VGGEASAAVEK, peptide start residue: 2)” was tested, and the log2 fold change was -0.0136.
Work on “UniProt Q9D7V2 (peptide sequence: LFTNDCIFLKK, peptide start residue: 101)” yielded a log2 fold change of -0.183.
With “UniProt Q9D8Y0 (peptide sequence: FEEEIKAEQEER, peptide start residue: 207)” the log2 fold change was -0.0795.
Work on “UniProt Q9D2G2 (peptide sequence: VEGGTPLFTLR, peptide start residue: 135)” yielded a log2 fold change of -0.56.
Target “UniProt Q9D1H8 (peptide sequence: GAHLTTQEMLSALASHIR, peptide start residue: 78)” has a log2 fold change of 0.104.
“UniProt Q9D7V1 (peptide sequence: KTQSLELANSLK, peptide start residue: 114)” showed a log2 fold change of 0.637.
“UniProt Q9D1K2 (peptide sequence: HALDAHQR, peptide start residue: 76)” was tested, and the log2 fold change was 0.206.
In the case of “UniProt Q9D7F7 (peptide sequence: AALQALKR, peptide start residue: 64)”, the log2 fold change was -0.0335.
Work on “UniProt Q9D4H2 (peptide sequence: SSLDIHGDESSLDINVLK, peptide start residue: 416)” yielded a log2 fold change of 0.255.
Work on “UniProt Q9D853 (peptide sequence: SGNTVAALVFQKRGTSLDK, peptide start residue: 224)” yielded a log2 fold change of 0.186.
With “UniProt Q9D7M1 (peptide sequence: LLLWAQNELDQKK, peptide start residue: 198)” the log2 fold change was -0.0924.
With “UniProt Q9D8Z6 (peptide sequence: VSSEELDR, peptide start residue: 67)” the log2 fold change was -0.124.
“UniProt Q9D8S4 (peptide sequence: ALDDISESIK, peptide start residue: 196)” was tested, and the log2 fold change was -0.192.
Target “UniProt Q9D8C4 (peptide sequence: NGGGDVETR, peptide start residue: 164)” has a log2 fold change of -0.219.
